# Reference: the supplement of paper PMC8728848
# This is one part of the list.
# Legend:
# Assay in all cases: glycan array binding signal (z-score within array); higher = stronger binding
# Details in all cases: glycan notation: IUPAC condensed, linker removed
# Glc(b1-4)Glc = molecular target: Glc(b1-4)Glc
# Procedure, shortened: (§1)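 Arrays were curated from the Consortium for Functional Glycomics database, 3228 in total, and kept only where the protein sequence was available. Binding is expressed as a within-array Z-score. This score was averaged across arrays of the same protein sequence at different concentrations or buffers and across linkers, and negative values can be read as non-binding.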
# Glc(b1-6)Glc = molecular target: Glc(b1-6)Glc
# Procedure, shortened: as §1
# GlcA(b1-3)Gal = molecular target: GlcA(b1-3)Gal
# Procedure, shortened: as §1
# GlcA(b1-3)GlcNAc = molecular target: GlcA(b1-3)GlcNAc
# Procedure, shortened: as §1
# GlcA(b1-6)Gal = molecular target: GlcA(b1-6)Gal
# Procedure, shortened: as §1
# [1] = molecular target: GlcA3S(b1-3)Gal(b1-4)GlcNAc(b1-2)Man
# Procedure, shortened: as §1
# [2] = molecular target: GlcA3S(b1-3)Gal(b1-4)GlcNAc(b1-3)Gal(b1-4)Glc
# Procedure, shortened: as §1
# [3] = molecular target: GlcNAc(a1-3)Gal(b1-4)GlcNAc
# Procedure, shortened: as §1
# [4] = molecular target: GlcNAc(a1-4)Gal(b1-3)GlcNAc
# Procedure, shortened: as §1
# [5] = molecular target: GlcNAc(a1-4)Gal(b1-4)GalNAc
# Procedure, shortened: as §1
# [6] = molecular target: GlcNAc(a1-4)Gal(b1-4)GlcNAc
# Procedure, shortened: as §1
# [7] = molecular target: GlcNAc(a1-4)Gal(b1-4)GlcNAc(b1-3)Gal(b1-4)Glc
# Procedure, shortened: as §1
# [8] = molecular target: GlcNAc(a1-4)Gal(b1-4)GlcNAc(b1-3)Gal(b1-4)GlcNAc
# Procedure, shortened: as §1
# [9] = molecular target: GlcNAc(a1-4)Gal(b1-4)GlcNAc(b1-3)Gal(b1-4)GlcNAc(b1-3)Gal(b1-4)GlcNAc
# Procedure, shortened: as §1
# [10] = molecular target: GlcNAc(a1-4)Gal(b1-4)GlcNAc(b1-3)Gal(b1-4)[Fuc(a1-3)]GlcNAc(b1-3)Gal(b1-4)[Fuc(a1-3)]GlcNAc
# Procedure, shortened: as §1
# [11] = molecular target: GlcNAc(a1-6)Gal(b1-4)GlcNAc
# Procedure, shortened: as §1
# [12] = molecular target: GlcNAc(b1-2)Gal(b1-3)GalNAc
# Procedure, shortened: as §1
# [13] = molecular target: GlcNAc(b1-2)Man(a1-3)[GlcNAc(b1-2)Man(a1-6)]Man(b1-4)GlcNAc(b1-4)GlcNAc
# Procedure, shortened: as §1
# [14] = molecular target: GlcNAc(b1-2)Man(a1-3)[GlcNAc(b1-2)Man(a1-6)]Man(b1-4)GlcNAc(b1-4)[Fuc(a1-6)]GlcNAc
# Procedure, shortened: as §1
# [15] = molecular target: GlcNAc(b1-2)Man(a1-3)[GlcNAc(b1-4)][GlcNAc(b1-2)Man(a1-6)]Man(b1-4)GlcNAc(b1-4)GlcNAc
# Procedure, shortened: as §1
# [16] = molecular target: GlcNAc(b1-2)Man(a1-3)[GlcNAc(b1-4)][GlcNAc(b1-2)Man(a1-6)]Man(b1-4)GlcNAc(b1-4)[Fuc(a1-6)]GlcNAc
# Procedure, shortened: as §1
# [17] = molecular target: GlcNAc(b1-2)[GlcNAc(b1-4)]Man(a1-3)[GlcNAc(b1-2)Man(a1-6)]Man(b1-4)GlcNAc(b1-4)GlcNAc
# Procedure, shortened: as §1
# [18] = molecular target: GlcNAc(b1-2)[GlcNAc(b1-4)]Man(a1-3)[GlcNAc(b1-4)][GlcNAc(b1-2)Man(a1-6)]Man(b1-4)GlcNAc(b1-4)GlcNAc
# Procedure, shortened: as §1
# [19] = molecular target: GlcNAc(b1-2)[GlcNAc(b1-4)]Man(a1-3)[GlcNAc(b1-4)][GlcNAc(b1-2)[GlcNAc(b1-6)]Man(a1-6)]Man(b1-4)GlcNAc(b1-4)GlcNAc
# Procedure, shortened: as §1
# [20] = molecular target: GlcNAc(b1-2)[GlcNAc(b1-4)]Man(a1-3)[GlcNAc(b1-4)][GlcNAc(b1-2)[GlcNAc(b1-6)]Man(a1-6)]Man(b1-4)GlcNAc(b1-4)[Fuc(a1-6)]GlcNAc
# Procedure, shortened: as §1
# [21] = molecular target: GlcNAc(b1-2)[GlcNAc(b1-6)]Man(a1-6)[GlcNAc(b1-2)Man(a1-3)]Man(b1-4)GlcNAc(b1-4)GlcNAc
# Procedure, shortened: as §1
# [22] = molecular target: GlcNAc(b1-2)[GlcNAc(b1-6)]Man(a1-6)[GlcNAc(b1-2)Man(a1-3)]Man(b1-4)GlcNAc(b1-4)[Fuc(a1-6)]GlcNAc
# Procedure, shortened: as §1
# [23] = molecular target: GlcNAc(b1-2)[GlcNAc(b1-6)]Man(a1-6)[GlcNAc(b1-4)][GlcNAc(b1-2)Man(a1-3)]Man(b1-4)GlcNAc(b1-4)GlcNAc
# Procedure, shortened: as §1
# GlcNAc(b1-3)Fuc = molecular target: GlcNAc(b1-3)Fuc
# Procedure, shortened: as §1
# GlcNAc(b1-3)Gal = molecular target: GlcNAc(b1-3)Gal
# Procedure, shortened: as §1
# [24] = molecular target: GlcNAc(b1-3)Gal(b1-3)GalNAc
# Procedure, shortened: as §1
# GlcNAc(b1-3)Gal(b1-4)Glc = molecular target: GlcNAc(b1-3)Gal(b1-4)Glc
# Procedure, shortened: as §1
# [25] = molecular target: GlcNAc(b1-3)Gal(b1-4)GlcNAc
# Procedure, shortened: as §1
# [26] = molecular target: GlcNAc(b1-3)Gal(b1-4)GlcNAc(b1-2)Man(a1-3)[GlcNAc(b1-3)Gal(b1-4)GlcNAc(b1-2)Man(a1-6)]Man(b1-4)GlcNAc(b1-4)GlcNAc
# Procedure, shortened: as §1
# [27] = molecular target: GlcNAc(b1-3)Gal(b1-4)GlcNAc(b1-2)Man(a1-3)[GlcNAc(b1-3)Gal(b1-4)GlcNAc(b1-2)Man(a1-6)]Man(b1-4)GlcNAc(b1-4)[Fuc(a1-6)]GlcNAc
# Procedure, shortened: as §1
# [28] = molecular target: GlcNAc(b1-3)Gal(b1-4)GlcNAc(b1-2)[GlcNAc(b1-3)Gal(b1-4)GlcNAc(b1-6)]Man(a1-6)[GlcNAc(b1-3)Gal(b1-4)GlcNAc(b1-2)Man(a1-3)]Man(b1-4)GlcNAc(b1-4)GlcNAc
# Procedure, shortened: as §1
# [29] = molecular target: GlcNAc(b1-3)Gal(b1-4)GlcNAc(b1-3)Gal(b1-4)GlcNAc
# Procedure, shortened: as §1
binder,measurement,setting,value
"MtEccB1 (Mycobacterium tuberculosis H37Rv), O69734 (protein) MGLRLTTKVQVSGWRFLLRRLEHAIVRRDTRMFDDPLQFYSRSIALGIVVAVLILAGAALLAYFKPQGKLGGTSLFTDRATNQLYVLLSGQLHPVYNLTSARLVLGNPANPATVKSSELSKLPMGQTVGIPGAPYATPVSAGSTSIWTLCDTVARADSTSPVVQTAVIAMPLEIDASIDPLQSHEAVLVSYQGETWIVTTKGRHAIDLTDRALTSSMGIPVTARPTPISEGMFNALPDMGPWQLPPIPAAGAPNSLGLPDDLVIGSVFQIHTDKGPQYYVVLPDGIAQVNATTAAALRATQAHGLVAPPAMVPSLVVRIAERVYPSPLPDEPLKIVSRPQDPALCWSWQRSAGDQSPQSTVLSGRHLPISPSAMNMGIKQIHGTATVYLDGGKFVALQSPDPRYTESMYYIDPQGVRYGVPNAETAKSLGLSSPQNAPWEIVRLLVDGPVLSKDAALLEHDTLPADPSPRKVPAGASGAP",glycan array binding signal (z-score),Glc(b1-4)Glc,1.43
same,glycan array binding signal (z-score),Glc(b1-6)Glc,-0.909
same,glycan array binding signal (z-score),GlcA(b1-3)Gal,0
same,glycan array binding signal (z-score),GlcA(b1-3)GlcNAc,-0.514
same,glycan array binding signal (z-score),GlcA(b1-6)Gal,0.488
same,glycan array binding signal (z-score),[1],-1.14
same,glycan array binding signal (z-score),[2],-0.962
same,glycan array binding signal (z-score),[3],0.123
same,glycan array binding signal (z-score),[4],-0.11
same,glycan array binding signal (z-score),[5],-1.19
same,glycan array binding signal (z-score),[6],1.8
same,glycan array binding signal (z-score),[7],-0.079
same,glycan array binding signal (z-score),[8],0.812
same,glycan array binding signal (z-score),[9],0.138
same,glycan array binding signal (z-score),[10],0.799
same,glycan array binding signal (z-score),[11],-0.902
same,glycan array binding signal (z-score),[12],0.695
same,glycan array binding signal (z-score),[13],0.45
same,glycan array binding signal (z-score),[14],0.678
same,glycan array binding signal (z-score),[15],-1.8
same,glycan array binding signal (z-score),[16],0.682
same,glycan array binding signal (z-score),[17],-0.488
same,glycan array binding signal (z-score),[18],-0.192
same,glycan array binding signal (z-score),[19],-0.895
same,glycan array binding signal (z-score),[20],2.03
same,glycan array binding signal (z-score),[21],0.087
same,glycan array binding signal (z-score),[22],0.025
same,glycan array binding signal (z-score),[23],-2.3
same,glycan array binding signal (z-score),GlcNAc(b1-3)Fuc,1.3
same,glycan array binding signal (z-score),GlcNAc(b1-3)Gal,-0.297
same,glycan array binding signal (z-score),[24],1.4
same,glycan array binding signal (z-score),GlcNAc(b1-3)Gal(b1-4)Glc,-0.262
same,glycan array binding signal (z-score),[25],1.13
same,glycan array binding signal (z-score),[26],0.404
same,glycan array binding signal (z-score),[27],-0.745
same,glycan array binding signal (z-score),[28],1.32
same,glycan array binding signal (z-score),[29],-0.007

# Reprinted from the entries so far for reference:
binder,measurement,setting,value
"MtEccB1 (Mycobacterium tuberculosis H37Rv), O69734 (protein) MGLRLTTKVQVSGWRFLLRRLEHAIVRRDTRMFDDPLQFYSRSIALGIVVAVLILAGAALLAYFKPQGKLGGTSLFTDRATNQLYVLLSGQLHPVYNLTSARLVLGNPANPATVKSSELSKLPMGQTVGIPGAPYATPVSAGSTSIWTLCDTVARADSTSPVVQTAVIAMPLEIDASIDPLQSHEAVLVSYQGETWIVTTKGRHAIDLTDRALTSSMGIPVTARPTPISEGMFNALPDMGPWQLPPIPAAGAPNSLGLPDDLVIGSVFQIHTDKGPQYYVVLPDGIAQVNATTAAALRATQAHGLVAPPAMVPSLVVRIAERVYPSPLPDEPLKIVSRPQDPALCWSWQRSAGDQSPQSTVLSGRHLPISPSAMNMGIKQIHGTATVYLDGGKFVALQSPDPRYTESMYYIDPQGVRYGVPNAETAKSLGLSSPQNAPWEIVRLLVDGPVLSKDAALLEHDTLPADPSPRKVPAGASGAP",glycan array binding signal (z-score),[14],0.678
same,glycan array binding signal (z-score),[15],-1.8
same,glycan array binding signal (z-score),[16],0.682
same,glycan array binding signal (z-score),[17],-0.488
same,glycan array binding signal (z-score),[18],-0.192
same,glycan array binding signal (z-score),[19],-0.895
same,glycan array binding signal (z-score),[20],2.03
same,glycan array binding signal (z-score),[21],0.087
same,glycan array binding signal (z-score),[22],0.025
same,glycan array binding signal (z-score),[23],-2.3
